Record: PubChem BioAssay AID686938 (Drosophila RNAi Screening Center, 2013)
Screen: 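Knock-downs reducing store-operated calcium influx in Drosophila cells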 (primary screen). Cells: Drosophila S2R+ cells. Reagents: long dsRNA against Drosophila genes, about 0.25 µg dsRNA per well, roughly 10,000 cells. Duration: 5 days of knock-down before the calcium assay. Challenge: thapsigargin (SERCA pump blocker) to empty calcium stores; entry signal taken 4 min after adding it. Measured: 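Per-well fluo-4 fluorescence in two replicates, unnormalised, measured in resting cells and 4 min after store depletion by the SERCA blocker thapsigargin; ratio of the two present in few wells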. Scale: calcium entry signal: higher = stronger calcium signal after store depletion; entry to resting ratio: higher = more calcium entry relative to resting level; resting calcium signal: higher = higher resting calcium signal. Rule for the call: 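Hit if the duplicate-averaged plate z-score for entry over resting signal is under −3; wells with weak total dye signal (Fmax z < −2) or more than 5 off-targets removed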. Calls: active = strongly reduced calcium entry; inactive = no strong reduction.
The deposit covers about 23,000 reagents; shown is an unselected part of those that have a named target and a result. Over the whole deposit, 75 (0.33%) were called active. 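Raw plate signals without normalisation; calls rest on plate z-scores that were not deposited; ratio present for only 364 wells.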 Names joined by + are all predicted targets of the reagent. The record does not give: the dose of the treatment.

| Target gene | amplicon | calcium entry signal, replicate 1 (fluorescence units) | calcium entry signal, replicate 2 (fluorescence units) | entry to resting ratio | resting calcium signal, replicate 1 (fluorescence units) | resting calcium signal, replicate 2 (fluorescence units) | activity call |
| --- | --- | --- | --- | --- | --- | --- | --- |
| CG4611 | DRSC10434 | 2.74e7 | 4.48e7 | – | 1.38e7 | 1.94e7 | inactive |
| CG12672 | DRSC19482 | 3.22e7 | 4.28e7 | – | 1.61e7 | 1.79e7 | inactive |
| CG9673 | DRSC20202 | 4.17e7 | 3.14e7 | – | 2.03e7 | 1.39e7 | inactive |
| CG5498 | DRSC11608 | 4.36e7 | 4.48e7 | – | 2.11e7 | 3.00e7 | inactive |
| CG14314 | DRSC14793 | 3.54e7 | 3.98e7 | – | 5.36e7 | 1.85e7 | inactive |
| CG30412 | DRSC04564 | 3.60e7 | 4.54e7 | – | 1.82e7 | 1.86e7 | inactive |
| htt (huntingtin) | DRSC16970 | 4.04e7 | 5.57e7 | – | 1.99e7 | 2.52e7 | inactive |
| Phb1 (Prohibitin 1) | DRSC03563 | 2.71e7 | – | – | 1.43e7 | – | inactive |
| vnd (ventral nervous system defective) | DRSC17360 | 3.57e7 | 5.06e7 | – | 1.71e7 | 1.98e7 | inactive |
| vnd (ventral nervous system defective) | DRSC18849 | 3.69e7 | 5.65e7 | 2.1 | 1.77e7 | 2.81e7 | inactive |
| vnd (ventral nervous system defective) | DRSC22487 | 4.44e7 | 2.82e7 | – | 2.35e7 | 1.39e7 | inactive |
| CG11608 | DRSC14334 | 3.27e7 | 3.92e7 | – | 1.75e7 | 2.07e7 | inactive |
| mthl5 (methuselah-like 5) | DRSC16155 | 3.23e7 | 3.47e7 | – | 1.67e7 | 1.82e7 | inactive |
| RpL13A (Ribosomal protein L13A) | DRSC12265 | 1.67e7 | 1.92e7 | – | 1.08e7 | 1.04e7 | inactive |
| CG8517 | DRSC07205 | 4.82e7 | 4.83e7 | – | 1.93e7 | 2.06e7 | inactive |
| Tom70 (Translocase of outer membrane 70) | DRSC02990 | 3.63e7 | 5.67e7 | – | 1.69e7 | 2.77e7 | inactive |
| SMC1 (Structural maintenance of chromosomes 1) | DRSC16846 | 5.34e7 | 5.26e7 | – | 2.62e7 | 2.27e7 | inactive |
| CG10097 + CG10096 | DRSC14189 | 3.60e7 | 4.86e7 | – | 1.57e7 | 2.04e7 | inactive |
| CG10097 + CG10096 | DRSC14190 | 2.92e7 | 3.85e7 | – | 1.73e7 | 1.98e7 | inactive |
| CG3457 | DRSC18509 | 2.71e7 | 4.32e7 | – | 1.25e7 | 1.86e7 | inactive |
| Trmt6 (tRNA methyltransferase 6 non-catalytic subunit) | DRSC03272 | 2.70e7 | 2.69e7 | – | 1.35e7 | 1.34e7 | inactive |
| CG6356 | DRSC16026 | 3.64e7 | 5.93e7 | – | 1.94e7 | 2.53e7 | inactive |
| CG40498 | DRSC07786 | 3.69e7 | 3.84e7 | – | 1.64e7 | 2.16e7 | inactive |
| Ctps (CTP synthase) | DRSC09342 | 4.00e7 | 4.31e7 | – | 1.88e7 | 2.24e7 | inactive |
| Ctps (CTP synthase) | DRSC10728 | 3.93e7 | 4.49e7 | – | 1.91e7 | 3.06e7 | inactive |
| Ctps (CTP synthase) | DRSC10729 | 3.94e7 | 4.86e7 | – | 2.20e7 | 2.12e7 | inactive |
| Nedd4 | DRSC11234 | 6.47e7 | 7.53e7 | – | 2.59e7 | 2.64e7 | inactive |
| Nedd4 | DRSC21548 | 4.69e7 | 3.87e7 | – | 2.53e7 | 1.77e7 | inactive |
| Cp190 (Centrosomal protein 190kD) | DRSC16607 | 3.74e7 | 5.26e7 | – | 1.76e7 | 2.20e7 | inactive |
| CG33914 | DRSC05033 | 2.43e7 | 3.74e7 | – | 1.17e7 | 1.61e7 | inactive |
| CG33914 | DRSC05034 | 2.21e7 | 3.84e7 | – | 1.22e7 | 1.65e7 | inactive |
| CR33283 (pseudo) | DRSC22918 | 3.23e7 | 3.51e7 | – | 1.72e7 | 1.55e7 | inactive |
| Jon99Fii + Jon99Cii + Jon99Ciii + 1 more | DRSC15298 | 3.57e7 | 5.24e7 | – | 1.86e7 | 2.03e7 | inactive |
| CG32806 | DRSC21699 | 4.44e7 | 3.44e7 | – | 2.40e7 | 1.65e7 | inactive |
| CG13720 | DRSC08329 | 2.14e7 | 3.11e7 | – | 1.19e7 | 1.51e7 | inactive |
| E(spl)m5-HLH (Enhancer of split m5, helix-loop-helix) | DRSC16695 | 2.92e7 | 4.87e7 | – | 1.58e7 | 2.21e7 | inactive |
| CG34232 | DRSC05332 | 4.39e7 | 5.64e7 | – | 1.73e7 | 2.29e7 | inactive |

The list goes on, starting with the last 2 of the part before.
| Target gene | amplicon | calcium entry signal, replicate 1 (fluorescence units) | calcium entry signal, replicate 2 (fluorescence units) | entry to resting ratio | resting calcium signal, replicate 1 (fluorescence units) | resting calcium signal, replicate 2 (fluorescence units) | activity call |
| --- | --- | --- | --- | --- | --- | --- | --- |
| E(spl)m5-HLH (Enhancer of split m5, helix-loop-helix) | DRSC16695 | 2.92e7 | 4.87e7 | – | 1.58e7 | 2.21e7 | inactive |
| CG34232 | DRSC05332 | 4.39e7 | 5.64e7 | – | 1.73e7 | 2.29e7 | inactive |
| COX7B (Cytochrome c oxidase subunit 7B) | DRSC10895 | 4.07e7 | 3.79e7 | – | 1.69e7 | 1.77e7 | inactive |
| SNRPG (Small nuclear ribonucleoprotein G) | DRSC20207 | 1.93e7 | 2.50e7 | – | 1.21e7 | 1.30e7 | inactive |
| CG11374 | DRSC00306 | 5.70e7 | 5.62e7 | – | 2.45e7 | 2.42e7 | inactive |
| Actn (alpha actinin) | DRSC17724 | 3.54e7 | 3.71e7 | – | 1.57e7 | 1.72e7 | inactive |
| lncRNA:CR32385 (long non-coding RNA:CR32385) | DRSC22966 | 2.36e7 | 2.65e7 | – | 1.21e7 | 1.02e7 | inactive |
| Cpr12A (Cuticular protein 12A) | DRSC19722 | 3.93e7 | 3.91e7 | – | 1.77e7 | 1.72e7 | inactive |
| CG3679 | DRSC19346 | 3.87e7 | 4.21e7 | – | 1.84e7 | 2.08e7 | inactive |
| CG31098 | DRSC14259 | 3.28e7 | 4.19e7 | – | 1.87e7 | 1.94e7 | inactive |
| Zw10 (Zeste-white 10) | DRSC18793 | 5.51e7 | 5.43e7 | – | 2.61e7 | 2.43e7 | inactive |
| CG30275 | DRSC04163 | 3.97e7 | 4.31e7 | – | 1.95e7 | 1.88e7 | inactive |
| Iris | DRSC00663 | 4.52e7 | – | – | 2.30e7 | – | inactive |
| CG15306 | DRSC17993 | 2.20e7 | 4.31e7 | – | 1.09e7 | 1.80e7 | inactive |
| CG15306 | DRSC18240 | 2.15e7 | 5.38e7 | – | 1.15e7 | 3.07e7 | inactive |
| CG13337 | DRSC06371 | 3.48e7 | 4.97e7 | – | 1.87e7 | 2.15e7 | inactive |
| ndl (nudel) | DRSC11374 | 2.81e7 | 4.32e7 | – | 1.42e7 | 1.98e7 | inactive |
| SA1 (Stromalin 1) | DRSC03424 | 3.39e7 | – | – | 2.26e7 | – | inactive |
| crol (crooked legs) | DRSC03514 | 4.17e7 | – | – | 2.14e7 | – | inactive |
| crol (crooked legs) | DRSC21348 | 3.39e7 | 3.20e7 | – | 1.90e7 | 1.49e7 | inactive |
| CG31637 | DRSC02270 | 4.81e7 | – | – | 2.38e7 | – | inactive |
| CG31637 | DRSC03263 | 1.97e7 | 1.64e7 | – | 1.09e7 | 8.79e6 | inactive |
| arg (arginase) | DRSC18737 | 5.00e7 | 5.90e7 | – | 2.30e7 | 2.57e7 | inactive |
